# Measured values: PMC12591178
# The chains behind the UniProt entries cited, without tags or fusion partners.
# UniProt P42227: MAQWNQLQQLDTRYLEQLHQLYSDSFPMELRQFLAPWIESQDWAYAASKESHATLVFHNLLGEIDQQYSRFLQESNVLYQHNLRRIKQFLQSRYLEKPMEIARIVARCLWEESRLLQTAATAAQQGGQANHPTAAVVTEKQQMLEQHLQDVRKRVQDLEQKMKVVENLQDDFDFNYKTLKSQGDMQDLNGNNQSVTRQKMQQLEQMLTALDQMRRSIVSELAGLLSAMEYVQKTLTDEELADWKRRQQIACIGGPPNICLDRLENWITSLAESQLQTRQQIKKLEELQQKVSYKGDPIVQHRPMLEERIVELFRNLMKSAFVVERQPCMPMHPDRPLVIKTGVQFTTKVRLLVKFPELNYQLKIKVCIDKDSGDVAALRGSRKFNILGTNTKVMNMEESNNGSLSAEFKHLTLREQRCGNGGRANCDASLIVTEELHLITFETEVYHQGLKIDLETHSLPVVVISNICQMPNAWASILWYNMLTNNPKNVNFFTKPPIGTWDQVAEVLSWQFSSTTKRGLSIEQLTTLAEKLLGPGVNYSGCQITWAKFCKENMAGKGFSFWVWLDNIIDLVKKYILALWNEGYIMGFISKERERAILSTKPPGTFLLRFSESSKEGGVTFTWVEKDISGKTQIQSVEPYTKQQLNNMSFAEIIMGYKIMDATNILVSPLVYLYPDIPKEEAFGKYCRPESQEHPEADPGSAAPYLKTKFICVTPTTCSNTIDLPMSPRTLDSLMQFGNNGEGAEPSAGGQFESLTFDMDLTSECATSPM
# UniProt P37238: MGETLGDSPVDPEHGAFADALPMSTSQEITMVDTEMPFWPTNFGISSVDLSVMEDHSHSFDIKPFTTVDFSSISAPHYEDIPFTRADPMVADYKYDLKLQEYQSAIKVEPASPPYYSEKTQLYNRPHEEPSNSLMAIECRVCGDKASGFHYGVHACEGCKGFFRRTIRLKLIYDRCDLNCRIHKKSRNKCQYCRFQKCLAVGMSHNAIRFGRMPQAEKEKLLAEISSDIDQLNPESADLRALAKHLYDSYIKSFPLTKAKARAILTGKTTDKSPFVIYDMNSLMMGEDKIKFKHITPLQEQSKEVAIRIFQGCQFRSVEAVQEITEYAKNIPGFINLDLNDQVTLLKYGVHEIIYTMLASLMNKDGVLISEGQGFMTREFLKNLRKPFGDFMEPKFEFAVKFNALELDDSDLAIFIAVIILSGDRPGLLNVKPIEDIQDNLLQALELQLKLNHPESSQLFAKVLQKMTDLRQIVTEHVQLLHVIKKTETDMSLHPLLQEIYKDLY
# Results are given in words; binding and its absence hold for the method and conditions named. In cells and extracts the contact can be indirect. Some results given as binding are weak or reduced against the parent protein; the word gives no strength. For part of these data: Sequences can lack the tags named with a protein.
# Experiments:
# [1] = molecular target: T1, PPP1R3B of the GST pull-down assay (UniProt Q8C767); assay: pull-down; GST pull-down of PPP1R3B and endogenously phosphorylated STAT3 (Figure S14); conditions not shown; only the target purified
# T1 sequence: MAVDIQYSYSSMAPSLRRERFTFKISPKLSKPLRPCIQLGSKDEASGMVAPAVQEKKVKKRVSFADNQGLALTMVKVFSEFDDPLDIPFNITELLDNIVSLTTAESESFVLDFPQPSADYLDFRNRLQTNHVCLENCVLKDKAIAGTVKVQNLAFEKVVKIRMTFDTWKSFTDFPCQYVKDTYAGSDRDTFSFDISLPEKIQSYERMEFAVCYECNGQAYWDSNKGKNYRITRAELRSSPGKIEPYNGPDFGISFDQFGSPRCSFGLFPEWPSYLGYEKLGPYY
# [2] = molecular target: T2, protein phosphatase 1 regulatory subunit 3B (PPP1R3B) (UniProt Q8C767); assay: co-IP; co-IP among PPP1R3B, PPAR-γ, p-GSK-3β and p-STAT3 (Figure 5A); cells, baits and conditions not shown
# T2 sequence: T1 sequence
# [3] = molecular target: phosphorylated STAT3 (p-STAT3) (UniProt P42227); assay: as above
substance,measurement,setting,value
phosphorylated STAT3 (p-STAT3) (from UniProt P42227 1-770),binding,[1],binds
same,binding,[2],binds
peroxisome proliferator-activated receptor gamma (PPARG/PPAR-γ) (from UniProt P37238 1-505),binding,[3],binds
